# Results reported in PMC12040169 (PLOS Biology, 2025).
# The other results are listed elsewhere or left out.
# System: T1, CTL2-GFP (C. trachomatis L2/434/Bu, GFP-expressing)
# T1 construct: L2/434/Bu, GFP-expressing
# Design: species or system HeLa; Intracellular C. trachomatis growth in HeLa cells, bulk GFP fluorescence relative to DMSO
# Conditions: bulk GFP, single well; 28.5 h, 10 µM; inhibitor
row,Structure (SMILES),% of control remaining [%]
1,CCOC(=O)c1ccc(-n2c(CCC(=O)O)ccc2-c2ccc(F)cc2)cc1O [CBK266010],198.49
2,O=C(Nc1ccc2[nH]ccc2c1)c1c(F)cccc1F [CBK144711],152.067
3,CS(=O)(=O)c1ccc(-c2ccc3c(n2)CCN(C2CCN(C(=O)OCc4ccccc4)CC2)C3)cc1 [CBK169530],103.013
4,CN1C[C@@H](NC(=O)Nc2ccccc2)C[C@H]1c1nc(-c2cnccn2)no1 [CBK288851],127.151
5,O=C(Cc1ccccc1[N+](=O)[O-])Nc1ccc(S(=O)(=O)N2CCCC2)cc1 [CBK265292],122.822
6,CCn1cc(CN2CCC(c3cc(Cc4cccc(OC)c4)cc(C)n3)CC2)c(C)n1 [CBK285671],105.149
7,O=C(c1ccc(-c2cnc3[nH]c(=O)n(Cc4ccccn4)c3n2)cc1)N1CCOCC1 [CBK064413],123.27
8,Cc1nn(C)c(N2CCNCC2)c1NC(=O)Cc1c[nH]c2ccccc12 [CBK050256T],100.659
9,CC(=O)Nc1cccc(NC(=O)N2CCCC(CO)C2)c1 (stereo not drawn) [CBK156049],118.093
10,O=C(N/N=C/c1ccc(N2N=C(c3ccc(Cl)cc3)CC2c2ccc(Cl)cc2)cc1)c1cccnc1 (stereo not drawn) [CBK262494],66.7284
11,C=CCC(NCc1ccccc1)c1ccc(C(=O)O)o1 (stereo not drawn) [CBK286591],124.14
12,c1ccc2c(Sc3cc(N4CCCC4)ncn3)cccc2c1 [CBK089538],93.0091
13,CNC(=O)CSc1nc2ccccc2nc1NC(C)C [CBK107171],100
14,O=C(O)CN1C(=O)c2ccc(C(=O)c3ccc4c(c3)C(=O)N(CC(=O)O)C4=O)cc2C1=O [CBK262166],100
15,O=C1N[C@H]2CCCN(C(=O)Cn3cccnc3=O)[C@H]2CCCCCOc2ccccc21 [CBK292096],144.004
16,COc1ccc(-c2ccc(/C=N/N=C3\NC(=O)C(CC(=O)O)S3)o2)c([N+](=O)[O-])c1 (stereo not drawn) [CBK264516],112.225
17,Cc1cc(C(=O)N2CCC(c3nn(C)c4ncccc34)CC2)cs1 [CBK284987],84.0353
18,COc1cccc(N2C(=O)/C(=C/c3ccc(O)c(O)c3)SC2=S)c1 [CBK263096],100
19,Fc1cccc(Cl)c1CNc1ccc(CNc2ncn[nH]2)cc1 [CBK267245],150.162
20,CCSc1nc(N)cc(O)n1 [CBK086474],105.615
21,OC(COc1ccccc1)Cn1ncnn1 (stereo not drawn) [CBK026083],119.225
22,CN(C)CCCNC(=O)COc1ccccc1 [CBK262189],113.748
23,O=C(COC(=O)c1cc(S(=O)(=O)N2CCCCC2)ccc1Cl)c1ccccc1 [CBK261657],110.911
24,CCn1cc(C(=O)N2CCC(C(=O)O)CC2)c(=O)c2cc3c(cc21)OCO3 [CBK286713],113.579
25,CN(C)CCN(C)S(=O)(=O)c1ccc(C(C)(C)C)cc1 [CBK059035T],124.84
26,Cc1c(-c2cncn2CC(=O)NC(C)(C)C)[nH]c2ccccc12 [CBK281911],109.026

row,Structure (SMILES),% of control remaining [%]
1,CC(=O)C(C)Oc1ccccc1-n1cccc1 (stereo not drawn) [CBK020334],119.276
2,COC(=O)c1ccc(NC(=O)CSc2nnc(-c3ccncc3)s2)cc1 [CBK269239],96.8076
3,COc1nccnc1OC1CCN(Cc2ccc(C(F)(F)F)cc2)CC1 [CBK084243],165.155
4,CC(C)OC(=O)N1CCC(N(C)Cc2ccc(-c3ccc(S(C)(=O)=O)cc3)cn2)CC1 [CBK165581T],91.9463
5,CC(=O)Nc1cccc(-n2nnnc2SCC2CCCCO2)c1 (stereo not drawn) [CBK305746],128.911
6,O=c1[nH]nc(-c2cccs2)n1-c1ccncc1 [CBK283868],112.581
7,CC(C)N(CC(N)=O)Cc1nc(-c2cccc(C(F)(F)F)c2)no1 [CBK306287],141.671
8,COc1cc(C=CC(=O)O)ccc1OCc1cn2cc(Cl)ccc2n1 [CBK296722],137.001
9,COc1ccccc1NC(=O)COc1cccc(Cl)c1Cl [CBK266029],163.605
10,Clc1cccc(-c2cccc(Nc3cccnc3)n2)c1Cl [CBK037800],98.7111
11,O=S1(=O)C=C(SCCN2CCCCC2)c2ccccc21 [CBK265328],100
12,O=C(NC1CC1)[C@H]1CN(Cc2ccccc2)C[C@@H]1C(=O)c1ccccc1 [CBK285264],93.3627
13,Cc1ncccc1COC(=O)Nc1cccnc1 [CBK138237],168.203
14,CC(C)CN1C(=S)N(Cc2ccc(-c3ccccn3)cc2)[C@H]2[C@H]3OC(=O)[C@H](C[C@H]3O)[C@H]21 [CBK288938],95.7126
15,COCC(=O)Nc1nc(OC)cnc1/C=C\c1ccccc1 [CBK145360],110.777
16,CC1CCC(C(N)=O)CN1C(=O)c1ccc(Oc2cccc(Br)c2)nc1 (stereo not drawn) [CBK306005],107.554
17,Cc1nc(CN2CCCC(NCc3cccc4ccccc34)C2)no1 (stereo not drawn) [CBK304068],142.164
18,OC[C@H]1CCN(Cc2cc(Cl)ccc2OCCCn2ccnc2)C[C@H]1O [CBK306581],142.516
19,CCn1cc(C(=O)O)c(=O)c2cc(F)c(N(C)CCc3ccc(OC)c(OC)c3)cc21 [CBK263070],98.6502
20,NC1=NC(=O)C2(COC(c3cccnc3)OC2)S1 (stereo not drawn) [CBK019981],112.599
21,Cc1c(N2C(=O)/C(=C3\C(=O)Nc4ccc([N+](=O)[O-])cc43)SC2=S)c(=O)n(-c2ccccc2)n1C [CBK263071],78.5678
22,O=C(CCn1c(-c2ccncc2)cc2cccnc21)N1CCCC1 [CBK282151],167.845
23,O=C1NCCN(C(=O)c2[nH]nc3c2CCCCC3)C1Cc1ccccc1-c1ccc(F)cc1 (stereo not drawn) [CBK285831],122.34
24,CN(C)CCCOc1nccnc1N1CCCC1 [CBK113427],121.348
25,O=C(Nc1ccccc1C(=O)N1CCCC1)c1cc(=O)[nH]c2ccccc12 [CBK295664],141.255
26,CCN(CC)C(=O)c1ccccc1NS(=O)(=O)c1cc(Br)c(Cl)s1 [CBK045424],81.2448

row,Structure (SMILES),% of control remaining [%]
1,COc1ccc2c(-n3cncn3)ccnc2c1 [CBK025957],163.625
2,CN(C)c1ccc(CC(=O)N2CCCc3ccccc32)cc1 [CBK200347],165.877
3,Cc1ccc(-c2ncc(OC3CCN(C)CC3)nc2N)c(C)c1 [CBK145139],103.966
4,CCCc1[nH]nc(O)c1-c1ccc(OC)cc1 [CBK075135],123.832
5,C=CCn1c(-c2sc(NC(=O)c3cc4ccccc4s3)nc2C)n[nH]c1=S [CBK295303],133.115
6,O=C1COc2ccc(S(=O)(=O)NCCOc3ccccc3)cc2N1 [CBK268480],121.618
7,Cn1cc(CNCC2CCN(c3ccccc3)C2)c(-c2ccncc2)n1 (stereo not drawn) [CBK306317],100.725
8,COC(=O)CC[C@H]1CNC(=O)[C@@H]2[C@@H](CCN2S(C)(=O)=O)N1C [CBK289019],111.115
9,Cc1ccccc1CN1CC[C@H]2[C@@H](C1)[C@H](c1ccsc1)CN2C(=O)c1ccccc1 [CBK285618],102.732
10,COc1ccccc1CNc1nccc(-n2ccc(C)n2)n1 [CBK288611],103.871
11,C(=C\c1nccnc1OC(c1ccccc1)c1ccccc1)/c1ccccc1 [CBK106878],133.401
12,O=C(O)CCC(=O)Nc1ccccc1C(=O)Nc1ccccc1 [CBK058571],114.753
13,O=C1N=C(NC2CCCCCC2)SC1CC(=O)N1CCCC1 (stereo not drawn) [CBK063342],92.2054
14,Cc1ccnc(NCC2CCN(c3ccc4nnnn4n3)C2)c1 (stereo not drawn) [CBK306348],138.403
15,Cc1cccc(C)c1NC(=O)CN1CCCN(c2nccc(OCC3COc4ccccc4O3)n2)CC1 (stereo not drawn) [CBK083974],174.455
16,CSCCC(=O)Nc1ccc2ncccc2c1 [CBK159818],105.463
17,COc1ccc(CN2C(=S)N(c3ccc(Cl)cc3)[C@H]3[C@@H]2[C@H]2OC(=O)[C@@H]3C[C@H]2O)cc1 [CBK288935],110.384
18,Cc1sc2nc(C(C)N3CCN(Cc4ccco4)CC3)[nH]c(=O)c2c1C (stereo not drawn) [CBK306066],116.359
19,c1ccc2c(c1)NC(c1ccncc1)n1nnnc1-2 (stereo not drawn) [CBK288171],120.685
20,CCc1c(C)nc2ccccc2c1SCCOC(=O)Nc1ccc(OC)cc1 [CBK155554T],103.279
21,O=C1c2cccc3cccc(c23)C(=O)N1CCN1CCN(S(=O)(=O)c2ccccc2[N+](=O)[O-])CC1 [CBK262530],95.9936
22,COc1ccc(NC(=O)CC2NC3CCCCC3NC2=O)cc1 (stereo not drawn) [CBK266488],112.138
23,CCCCN(C(C)=O)c1c(CC)nc2ccc(C(=O)NCc3ccccc3OC)cn12 [CBK145761],105.875
24,CCCNC(=O)c1ccc(C)c(NC(=O)N[C@@H](CO)c2ccccc2)c1 [CBK306609],103.539
25,CCOC(=O)C1CCN(S(=O)(=O)c2ccc(OC)c(C)c2C)CC1 [CBK268955],140.53
26,Cc1cc(-c2nn3c(-c4ccccc4)nnc3s2)c2ccccc2n1 [CBK267187],134.912

# Copied from the list:
# `Cc1c(N2C(=O)/C(=C3\C(=O)Nc4ccc([N+](=O)[O-])cc43)SC2=S)c(=O)n(-c2ccccc2)n1C` [CBK263071] | % of control remaining [%]: 78.5678
# `C=CCn1c(-c2sc(NC(=O)c3cc4ccccc4s3)nc2C)n[nH]c1=S` [CBK295303] | % of control remaining [%]: 133.115
# `O=C1c2cccc3cccc(c23)C(=O)N1CCN1CCN(S(=O)(=O)c2ccccc2[N+](=O)[O-])CC1` [CBK262530] | % of control remaining [%]: 95.9936
# `CCCc1[nH]nc(O)c1-c1ccc(OC)cc1` [CBK075135] | % of control remaining [%]: 123.832
